Hit rate of the full screen: of about 320,000 compounds, about 22,000 (6.9%) were called active. Inconclusive results, whose numbers are uncertain, are shown with a selection of clear calls. Calls follow the shape of the dose curve; as a rule, active = well fitted inhibition curve with a large enough effect; inconclusive = small, poorly fitted or top-dose-only effect, or another doubt; inactive = no such curve, though single readings can be large or run the other way. Potencies of inconclusive entries are doubtful fits and often do not repeat.
Assay: Primary qHTS for delayed death inhibitors of the malarial parasite plastid, 96 hour incubation
Conditions: P. falciparum luciferase reporter growth; series mostly up to 28.7 µM; activity change, negative = inhibition: at the top concentration
Summary of the method: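 96 h incubation, 37 C, 5% CO2, of luciferase-reporter P. falciparum-infected RBCs (2% hematocrit, 0.05% parasitemia final) with test compounds; endpoint luminescence.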
% is scaled to controls: 0 for no effect and ±100 for the full control effect; potency is read from the fitted curve at half-maximal effect.

Structure (SMILES)	Potency	activity change, negative = inhibition
CC(C)C(c1nnnn1Cc1cccs1)N1CCN(C2CCCC2)CC1 (stereo not given)	inconclusive: 3.7 µM [inhibitor, partial curve]	
CN(C)C(CNc1ccc(S(C)(=O)=O)cc1[N+](=O)[O-])Cc1ccccc1 (stereo not given)	inconclusive: 6.57 µM [inhibitor, partial curve, poor fit]	
Cc1cc(C)c(OCCCNC2CCCC2)c(Br)c1	inconclusive: 18.5 µM [inhibitor, single point]	
O=C(c1cc(S(=O)(=O)N2CCOCC2)ccc1Cl)N1CCc2ccccc2C1		inactive: 13.6%
Cc1ccc(S(=O)(=O)NC(C(=O)N2CCN(S(=O)(=O)c3cccc(F)c3)CC2)C(C)C)cc1 (stereo not given)		inactive: 15.8%
N#Cc1ccccc1OCC(=O)OCC(=O)Nc1ccc2c(c1)OCO2		inactive: 6.85%
COc1cc(C(=O)NCCN2C(=O)S/C(=C\c3cccs3)C2=O)cc(OC)c1OC		inactive: 27%
CCN1CCN(CC(=O)c2cc(Cl)ccc2Cl)CC1	inconclusive: 9.28 µM [inhibitor, partial curve]	
COC(=O)c1cc2c(ccn2-c2ccc(F)cc2)n1CC(C)C	inconclusive: 4.65 µM [inhibitor, partial curve]	
N#CC1(Nc2cccc(Br)c2)C(=O)Nc2ccccc21 (stereo not given)	inconclusive: 20.8 µM [inhibitor, single point]	
Cc1cc(=O)oc2cc(OC(C)C(=O)NCc3ccccn3)ccc12 (stereo not given)	inconclusive: 20.8 µM [inhibitor, partial curve, poor fit]	
O=C(OCCOc1ccc(Br)cc1)c1ccc(Cl)nc1		inactive: 26.3%
CSc1ccccc1C(=O)Nc1ccccc1C	inconclusive: 5.22 µM [inhibitor, partial curve]	
CCn1ccnc1CN(C)Cc1cn(C)nc1-c1ccccc1F	active: 9.28 µM	
COC(=O)c1c(NC(=O)CS(=O)(=O)c2ccccc2)sc(C)c1C	inconclusive: 10.4 µM [inhibitor, single point]	
COc1ccc(CCN(C)C(=O)CCNS(=O)(=O)c2ccccc2C(F)(F)F)cc1OC	inconclusive: 10.4 µM [inhibitor, partial curve, poor fit]	
CCn1c(Cc2ccccc2)nnc1SCC(=O)NC1CCCC1	inconclusive: 0.104 µM [inhibitor, full curve, poor fit]	
CCn1c(CNC(=O)Cc2ccc(OC)cc2)nnc1SCC(=O)Nc1ccc(C(=O)O)cc1		inactive: -15.2%
CCCCCC(=O)N/N=C/c1ccco1	active: 13.1 µM	
CC(=O)c1c(C)[nH]c(C(=O)N2CCN(c3ccccn3)CC2)c1C	inconclusive: 11.7 µM [inhibitor, single point]	

An excerpt of these results, bar-delimited:
Structure (SMILES) | Potency | activity change, negative = inhibition
CCn1c(CNC(=O)Cc2ccc(OC)cc2)nnc1SCC(=O)Nc1ccc(C(=O)O)cc1 |  | inactive: -15.2%
CCCCCC(=O)N/N=C/c1ccco1 | active: 13.1 µM | 
